Data from PubChem BioAssay AID2685 (National Center for Advancing Translational Sciences (NCATS), 2010).
The list shows a part of the results. These are further read-outs of the screen, such as a control signal, another cell line or another target. No call is given for them. Most of these compounds were active or inconclusive in the main read-out, so they are no random draw. Words in brackets tell the shape of the fitted curve; partial curves, single points and poor fits give uncertain potencies. Where a SMILES comes first, the peptide text is derived from it. [ ]: non-standard residue; d: D form. The star is where a group is joined. PhAc = O=C(Cc1ccccc1)*

Assay: qHTS Assay for Lipid Storage Modulators in Drosophila S3 Cells;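 as to cell number change: cells counted by Cell Tracker Red CMTPX staining in the red channel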
Conditions: BODIPY lipid droplet fluorescence, 18-24 h; for cell number change: measured here: cell count max response, cells fed with added oleic acid
Outline: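 Laser-scanning cytometry quantifies lipid droplet accumulation (500–530 nm total intensity; droplet/cell object ratio) in oleic acid-fed (400 uM added) Drosophila S3 cells treated with a concentration series. 20 uM Triacsin C defined 100% inhibition.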

[1] = measured here: cell number channel AC50, cells fed with added oleic acid
[2] = measured here: lipid fluorescence (Fed channel) AC50, cells fed with added oleic acid

Row | SMILES | cell number change [%] | AC50 [1] | AC50 [2]
1 | Cc1cc(Cl)ccc1NC(=O)c1ccc2c(c1)CCN2S(C)(=O)=O | 13.4 | 3.26 µM [rising, single point] | 
2 | COC(=O)C(NS(=O)(=O)c1ccccc1Cl)c1ccccc1 (stereo unspecified) | -7.01 |  | 6.51 µM [falling, single point]
3 | Cc1ccc(S(=O)(=O)NCc2ccccc2)cc1C(=O)N1CCN(S(=O)(=O)c2ccccc2)CC1 | -1.01 | 3.26 µM [rising, single point] | 
4 | CCN(CCO)Cc1csc2cc(C)ccc12 | -3.45 |  | 16.4 µM [rising, single point]
5 | O=C(COc1ccccc1)N1CCCCCCC1 | 19 |  | 29.1 µM [rising, single point]
6 | COc1ccc(C)cc1COC(=O)c1[nH]c(C)c(C(C)=O)c1C | 14.3 |  | 29.1 µM [falling, single point]
7 | CCCCn1c(N)c(N(CCC(C)C)C(=O)c2cc(Cl)nc3ccccc23)c(=O)[nH]c1=O | 29.2 | 4.11 µM [rising, full curve, poor fit] | 4.61 µM [rising, full curve]
8 | CN(C)C(=O)c1snnc1-c1ccccc1 | 10.8 |  | 29.1 µM [rising, single point]
9 | COc1ccc(C(C)=O)cc1CC(=O)Nc1cccc(S(=O)(=O)N2CCOCC2)c1 | -5.83 |  | 
10 | COc1ccc(CC(=O)Nc2cccc(C(=O)Nc3ccccc3C(=O)O)c2)cc1OC | 32.2 | 18.4 µM [rising, single point] | 
11 | CC(C)C[C@@H](NC(=O)[C@H]1CCCN1C(=O)Cc1ccccc1)C(N)=O (PhAc-[dP]-[dL]-NH2) | -23 |  | 29.1 µM [falling, single point]
12 | CCN1C(=O)[C@@H]2[C@@H](c3ccc(-c4cccc(Cl)c4)c(OC)c3)N3CCCC[C@@]3(C(=O)OC)[C@@H]2C1=O | -47.8 | 13 µM [falling, partial curve, poor fit] | 18.4 µM [falling, partial curve, poor fit]
13 | CC(=O)c1cccc(S(=O)(=O)N2CCC(C(=O)O)(c3ccccc3)CC2)c1 | 32.1 | 32.6 µM [rising, single point] | 0.13 µM [rising, full curve]
14 | Cc1c(NC(=O)c2cn3ccccc3n2)cccc1-n1cnnn1 | -47 | 29.1 µM [falling, single point] | 16.4 µM [falling, single point]
15 | Cc1ccc(C(=O)CCC(=O)NCc2ccccc2)cc1 | 12.5 |  | 
16 | CCC(C)N(C(=O)COc1ccccc1C#N)C1CCS(=O)(=O)C1 (stereo unspecified) |  |  | 23.1 µM [falling, single point]
17 | O=C(CSc1nnc(CNC(=O)c2cccs2)o1)Nc1cccc(Cl)c1 | 2.14 |  | 6.51 µM [rising, single point]
18 | COc1ccc2cc(-c3cc(C(=O)O)c4ccccc4n3)ccc2c1 | 32.5 | 29.1 µM [rising, single point] | 
19 | Cc1ccccc1SCC(=O)NC1CCOC1=O (stereo unspecified) | -13.2 | 0.058 µM [falling, full curve, poor fit] | 0.0731 µM [falling, full curve, poor fit]
20 | CCOC(=O)CSc1nc2nc(C)cc(C)n2n1 | -27.6 |  | 20.6 µM [falling, partial curve, poor fit]

Row | SMILES | cell number change [%] | AC50 [1] | AC50 [2]
21 | N/C(=N\OS(=O)(=O)c1ccccc1)c1ccccn1 | -32.4 | 29.1 µM [falling, single point] | 6.51 µM [rising, single point]
22 | C/C(=N\NC1=NCCN1)c1ccccc1 | 28.4 |  | 
23 | CN(C)/C=N/c1ncc(C(=O)c2ccc(Cl)cc2)s1 |  | 6.51 µM [rising, single point] | 6.51 µM [rising, single point]
24 | Cn1c(N)c(N2CCN(c3ccccc3)CC2)c(=O)[nH]c1=O | -92.2 |  | 
25 | COc1cccc(NS(=O)(=O)c2cc(C)ccc2OC)c1 | 0.27 |  | 0.0517 µM [rising, full curve, poor fit]
26 | COc1cc(/C=C2/SC(=S)NC2=O)ccc1OS(=O)(=O)c1ccc(C)cc1 | -2.26 |  | 29.1 µM [falling, single point]
27 | COCCn1c(SCC(=O)NC(=O)NC2CCCC2)nc2ccccc2c1=O | 29.4 |  | 16.4 µM [falling, partial curve]
28 | COc1ccc(Cl)cc1N(C(=O)c1ccco1)C(C(=O)NC1CCCC1)c1ccco1 (stereo unspecified) | 22.2 |  | 6.51 µM [rising, single point]
29 | O=C(Cc1ccccc1)NNC(=O)C1CCN(c2ncccn2)CC1 |  | 0.103 µM [falling, full curve, poor fit] | 
30 | CC1(c2ccc(OC(F)F)cc2)NC(=O)N(CC(=O)Nc2cccc(F)c2)C1=O (stereo unspecified) | 22.5 | 3.66 µM [rising, full curve, poor fit] | 
31 | CCOc1ccc(C(=O)NC(=S)Nc2ccccc2N2CCOCC2)cc1Br | -20.9 | 0.092 µM [rising, full curve, poor fit] | 6.51 µM [rising, partial curve, poor fit]
32 | COc1ccc(C(=O)N[C@H](C(=O)NCc2ccco2)C(C)C)cc1 | -5.22 |  | 0.00461 µM [rising, full curve, poor fit]
33 | Cc1nc(OCc2c(C)noc2C)c2ccccc2n1 | 22.1 | 0.82 µM [rising, single point] | 0.731 µM [rising, full curve]
34 | CCCCCCCCOC(=O)CCc1c(C)[nH]c(=S)[nH]c1=O | -22 |  | 13 µM [falling, single point]
35 | O=C(COC(=O)c1cccc(S(=O)(=O)N2CCCC2)c1)Nc1ccccc1Cl | -91.5 |  | 
36 | COC(=O)c1c(C(=O)OC)c(C)n(Cc2ccco2)c1C | 21.6 |  | 18.4 µM [rising, single point]
37 | CSCCC(NC(=O)COc1ccccc1)C(=O)N(C)CC(=O)Nc1ccc(Cl)cc1 (stereo unspecified) | -13.3 |  | 
38 | CCc1cc(-c2n[nH]c(C)c2Oc2ccc(C(C)C)cc2)c(O)cc1O | -92.4 |  | 29.1 µM [falling, partial curve]
39 | Cc1ccc(C)c(N2CCN(C(=O)CCC(=O)N3CCOc4ccc(Cl)cc43)CC2)c1 | 59.7 | 14.6 µM [rising, partial curve] | 20.6 µM [rising, single point]
40 | Cc1cc(C)c(C#N)c(SCc2[nH]nc3c2C(c2ccccc2)C(C#N)=C(N)O3)n1 (stereo unspecified) | 78.5 | 1.16 µM [rising, full curve] | 8.2 µM [rising, partial curve]

Row | SMILES | cell number change [%] | AC50 [1] | AC50 [2]
41 | Cc1ccc(OCC(=O)NC2CCCC2)c(C)c1 | 20.1 |  | 6.51 µM [rising, partial curve]
42 | CC(C)/C=N/Nc1nc(-c2ccc(Br)cc2)cs1 | 13.1 |  | 3.26 µM [rising, partial curve, poor fit]
43 | CC(=O)c1ccc(NC(=S)N2CCN(c3cccc(Cl)c3)CC2)cc1 | -0.865 |  | 
44 | CC(=O)/C(=N/Nc1ccc(C)cc1)Sc1nnc(CCc2ccccc2)n1-c1ccccc1 | -4.29 |  | 0.651 µM [falling, partial curve]
45 | CCOC(=O)N1CCC(NC(=O)CNS(=O)(=O)c2ccc(Br)s2)CC1 | 16.4 |  | 29.1 µM [rising, single point]
46 | COc1cccc(C(CC(=O)NCC2CCCO2)NS(=O)(=O)c2ccc(C)cc2)c1OC (stereo unspecified) | -37.1 | 29.1 µM [falling, single point] | 
47 | Cc1nnc(SCC(=O)N2CC(=O)Nc3ccccc32)n1Cc1ccccc1 | 4.6 |  | 0.146 µM [falling, full curve, poor fit]
48 | O=C(COc1ccccc1Br)NCCC1=CCCCC1 | -32.4 | 20.6 µM [falling, single point] | 
49 | CCN(CC)S(=O)(=O)c1cccc(NC(=O)c2ccc(-n3nc(C)cc3C)cc2)c1 | 2.63 |  | 18.4 µM [falling, single point]
50 | O=C(Nn1c(-c2ccccc2)nc2ccccc2c1=O)c1ccc([N+](=O)[O-])cc1 |  | 0.731 µM [rising, partial curve, poor fit] | 0.731 µM [rising, partial curve, poor fit]
51 | CCOc1ccc(OCCSc2nc(C)cc(=O)[nH]2)cc1 | 6.4 |  | 0.13 µM [falling, full curve, poor fit]
52 | O=C(O)c1cc(N/N=C/C(Cl)=C/c2ccccc2)ccc1Cl | -19.8 |  | 
53 | CC1(C)c2ccccc2N(CC(N)=O)C12C=Cc1ccccc1O2 (stereo unspecified) | -25.8 | 0.82 µM [falling, full curve, poor fit] | 0.92 µM [falling, full curve, poor fit]
54 | COc1ccc([C@H]2CC(=O)C=C(c3ccc(Oc4ccccc4)cc3)C2)cc1OC | -46.7 | 5.17 µM [falling, single point] | 
55 | COc1ccc(C)cc1NS(=O)(=O)c1ccc(Br)s1 | 26.8 |  | 0.651 µM [falling, single point]
56 | CCOC(=O)C1=Nc2ccccc2C1=[N+]=[N-] |  | 0.116 µM [rising, full curve, poor fit] | 
57 | COc1ccccc1C(=O)N/C(=C\c1ccccc1)C(=O)NC(C)C(=O)O (stereo unspecified) | -13.1 |  | 16.4 µM [falling, single point]
58 | N#Cc1ccc(C(=O)N/N=C/c2cn(CC(=O)O)c3ccccc23)c(F)c1 | 2.09 |  | 7.31 µM [rising, partial curve]
